This is an account of results in patent US20250090437A1, “COSMETIC COMPOUNDING AGENT, COSMETIC AND PRODUCTION METHOD THEREOF” (MIYOSHI OIL & FAT CO., LTD., priority 2019, published 2025).

The nature of the first series: Sensory evaluation of compound solutions sprayed onto the skin. The format is in vivo. The settings on record: compound concentration 20 wt %, sprayed onto the skin, scale of 1 to 5, average of five.
As for `NC(CO)(CO)CO.O=C1OC(C(O)CO)C(O)=C1O` (stereo not drawn) [Compound 49], the “Feeling of use: Moisture retention feeling” value came out at 4.5, the “Feeling of use: Non-stickiness” value worked out at 3.8 and the “Feeling of use: Skin compatibility” value is given as 3.8.

For the compound `CC(=O)NC(CCC(=O)O)C(=O)O.NC(CO)(CO)CO.NC(CO)(CO)CO` (stereo not drawn) [Compound 55], the “Feeling of use: Moisture retention feeling” value was 4.3, the “Feeling of use: Non-stickiness” value is given as 3.1 and the “Feeling of use: Skin compatibility” value was 3.5.

Turning to `NC(CO)(CO)CO.O=C(O)C(O)C(O)C(=O)O` (stereo not drawn) [Compound 79], the “Feeling of use: Moisture retention feeling” value is 4.5, the “Feeling of use: Non-stickiness” value is 3.1 and the “Feeling of use: Skin compatibility” value worked out at 3.6.

For `CC(=O)NC(CCC(=O)O)C(=O)O.NC(CO)(CO)CO` (stereo not drawn) [Compound 86], the “Feeling of use: Moisture retention feeling” value is recorded as 4.4, the “Feeling of use: Non-stickiness” value is 3.3 and the “Feeling of use: Skin compatibility” value is given as 3.7.

As for `CC(=O)O.NC(CO)(CO)CO` [Compound 77], the “Feeling of use: Moisture retention feeling” value is given as 3.7, the “Feeling of use: Non-stickiness” value was determined as 4.5 and the “Feeling of use: Skin compatibility” value is recorded as 3.5.

On to `CC(O)C(=O)[O-].OCC[N+](CCO)(CCO)CCO` [Compound C87], for which the “Feeling of use: Moisture retention feeling” value is given as 4.2, the “Feeling of use: Non-stickiness” value is 3.1 and the “Feeling of use: Skin compatibility” value worked out at 3.7.

As for `CC(C)(C)CO` [Compound C44], the “Feeling of use: Moisture retention feeling” value was 3.6, the “Feeling of use: Non-stickiness” value was 3.7 and the “Feeling of use: Skin compatibility” value worked out at 3.6.

On to `CC(C)(CO)CO` [Compound C47], for which the “Feeling of use: Moisture retention feeling” value amounted to 3.7, the “Feeling of use: Non-stickiness” value came to 4.5 and the “Feeling of use: Skin compatibility” value is listed as 3.8.

`NC(CC(=O)O)C(=O)O.NC(CO)(CO)CO` (stereo not drawn) [Compound 54]: the “Feeling of use: Moisture retention feeling” value was determined as 4.4, the “Feeling of use: Non-stickiness” value stood at 3.1 and the “Feeling of use: Skin compatibility” value is on record as 3.7.

Take `C[N+](C)(C)CCO.O=C([O-])CO` [Compound C89]: the “Feeling of use: Moisture retention feeling” value is given as 4.5, the “Feeling of use: Non-stickiness” value is 3.7 and the “Feeling of use: Skin compatibility” value was found to be 3.7.

Regarding `CC(=O)CCC(=O)O.NC(CO)(CO)CO` [Compound 53], the “Feeling of use: Moisture retention feeling” value turned out to be 4.6, the “Feeling of use: Non-stickiness” value turned out to be 3.8 and the “Feeling of use: Skin compatibility” value was found to be 3.8.

Turning to `CC(=O)[O-].C[N+](C)(C)CCO` [Compound C88], the “Feeling of use: Moisture retention feeling” value amounted to 3.7, the “Feeling of use: Non-stickiness” value came out at 4.5 and the “Feeling of use: Skin compatibility” value turned out to be 3.8.

Regarding `CC(C)(CO)CO` [Compound C65], the “Feeling of use: Moisture retention feeling” value is recorded as 3.7, the “Feeling of use: Non-stickiness” value is 3.8 and the “Feeling of use: Skin compatibility” value turned out to be 3.7.

Turning to `CC(O)C(=O)O.NCCCCCC(=O)O` [Compound C61], the “Feeling of use: Moisture retention feeling” value amounted to 4.3, the “Feeling of use: Non-stickiness” value was 3.8 and the “Feeling of use: Skin compatibility” value was found to be 3.7.

Still in this series, the particulars now being: compound concentration 100 wt %, scale of 1 to 5, average of five.
Turning to `CC(O)C(=O)[O-].C[N+](C)(C)CCO` [Compound C90], the “Feeling of use: Non-stickiness” value was found to be 3.1, the “Feeling of use: Skin compatibility” value is 4.0 and the “Feeling of use: Spreadability” value is on record as 3.2.

Turning to `CS(=O)(=O)[O-].C[N+](C)(C)CCO` [Compound C93], the “Feeling of use: Non-stickiness” value worked out at 3.2, the “Feeling of use: Skin compatibility” value came to 4.1 and the “Feeling of use: Spreadability” value was 3.3.

Consider `C[N+](C)(C)CCO.O=P([O-])(O)O` [Compound C94], for which the “Feeling of use: Non-stickiness” value stood at 4.7, the “Feeling of use: Skin compatibility” value was 4.4 and the “Feeling of use: Spreadability” value turned out to be 4.7.

`C[N+](C)(C)CCO.O=C([O-])CCC(=O)O` [Compound C92]: the “Feeling of use: Non-stickiness” value was 4.5, the “Feeling of use: Skin compatibility” value was 4.1 and the “Feeling of use: Spreadability” value is on record as 4.6.
